# For at least one compound, name, drawing or mass did not settle the structure.
# Assays:
# [1] = system: morphine-induced place preference in mice; experiment: Conditioned place preference (CPP) to morphine; format: in vivo; conditions: forskolin 5 mg/kg
# [2] = system: anxiety caused by nerve injury in mice; experiment: Anxiety behavior test (EPM) after nerve injury; format: in vivo; conditions: 5 mg/kg, 7 days after injury, FIG. 6
# pre-LTP in ACC = pre-LTP in ACC cortical slices; format: cell-based, adult mice; conditions: forskolin 10 μM, FIG. 2
# [3] = system: behavioral itching (scratching) response in mice; experiment: Itching response to intradermal compound 48/80; format: in vivo; conditions: 5 mg/kg, compound 48/80 100 μg/50 μl intradermal, FIG. 7
smiles,measurement,setting,value
"C=C[C@@]1(C)CC(=O)[C@]2(O)[C@@]3(C)[C@@H](O)CCC(C)(C)[C@@H]3[C@H](O)[C@H](OC(C)=O)[C@@]2(C)O1 [forskolin, reference compound]",selection time in CPP,[1],slight increase
same,anxiety caused by nerve injury (EPM test),[2],did not further increase anxiety
same,induction of pre-LTP,pre-LTP in ACC,slight increase
same,total scratching (itching) responses,[3],significantly enhanced

# Reference: US11541060B2, “Pharmaceutical compositions for treating pain” (FOREVER CHEER INTERNATIONAL LIMITED, priority 2017, dated 2023)
